Source: patent US20230406915A1 (HJB HANGZHOU, published 2023)
Results are given in words; binding and its absence hold for the method and conditions named. Some binding calls cover weakened binding; strength is not graded here.

Columns and labels:
Assay in all cases: BLI (Octet), self-association, table heading
M-751 = target: M-751
M-755 = target: M-755
M-747 = target: M-747

B1: M-751 (antibody, V domains shown)
VH: QVQLVQSGAEVKKPGSSVKVSCKASGYTFTNYWMNWVRQAPGQGLEWMGMIHPSDSETRLNQKFQGRVTITVDKSTSTAYMELSSLRSEDTAVYYCAREGRLGLRSYAMDYWGQGTLVTVSS
VL: DIQMTQSPSSLSASVGDRVTITCRSSQSLLNSSNQKNYLAWYQQKPGKVPKLLIYFASTRESGVPSRFSGSGSGTDFTLTISSLQPEDVATYFCQQHYITPLTFGGGTKVEIKR
notes: also called candidate antibody
Question: For B1, which binding (M-751) is on record?
Answer: binds

B2: M-755 (antibody, V domains shown)
VH: QVQLVQSGAEVKKPGASVKVSCKASGYTFTNYWMNWVRQAPGQGLEWMGMIHPSDSETRLNQKLQGRVTITVDKSTSTAYMELRSLRSDDTAVYYCAREGRLGLRSYAMDYWGQGTLVTVSS
VL: DIQMTQSPSSLSASVGDRVTITCRSSQSLLNSSNQKNYLAWYQQKPGKAPKLLIYFASTRESGVPSRFSGSGSGTDFTLTISSLQPEDFATYFCQQHYITPLTFGGGTKVEIKR
notes: as for B1
Question: How did the binding (M-755) turn out when B2 was run?
Answer: binds

B3: M-747 (antibody, human IgG1, kappa, V domains shown)
VH: QVQLVQSGSELKKPGASVKVSCKASGYTFTNYWMNWVRQAPGQGLEWMGMIHPSDSETRLNQKFKDRVTITVDKSTSTAYMELSSLRSEDTAVYYCAREGRLGLRSYAMDYWGQGTLVTVSS
VL: DIVMTQSPDSLAVSLGERATINCKSSQSLLNSSNQKNYLAWYQQKPGQPPKLLVYFASTRESGVPDRFSGSGSGTDFTLTISSLQAEDVAVYFCQQHYITPLTFGGGTKVEIKR
notes: Humanized anti-DKK2 parental antibody; also called parental antibody; parental molecule
Question: Which binding (M-747) does the source give for B3 here?
Answer: binds
